Experimental data from article PMC9241042.
These are yes or no findings as the source states them, for the method shown. Binding seen in cells or lysates may run through a third protein. Some binding calls cover weakened binding; strength is not graded here.

Sequences of proteins named here, by UniProt entry; tags and fusion partners are left off.
UniProt Q5JSL3: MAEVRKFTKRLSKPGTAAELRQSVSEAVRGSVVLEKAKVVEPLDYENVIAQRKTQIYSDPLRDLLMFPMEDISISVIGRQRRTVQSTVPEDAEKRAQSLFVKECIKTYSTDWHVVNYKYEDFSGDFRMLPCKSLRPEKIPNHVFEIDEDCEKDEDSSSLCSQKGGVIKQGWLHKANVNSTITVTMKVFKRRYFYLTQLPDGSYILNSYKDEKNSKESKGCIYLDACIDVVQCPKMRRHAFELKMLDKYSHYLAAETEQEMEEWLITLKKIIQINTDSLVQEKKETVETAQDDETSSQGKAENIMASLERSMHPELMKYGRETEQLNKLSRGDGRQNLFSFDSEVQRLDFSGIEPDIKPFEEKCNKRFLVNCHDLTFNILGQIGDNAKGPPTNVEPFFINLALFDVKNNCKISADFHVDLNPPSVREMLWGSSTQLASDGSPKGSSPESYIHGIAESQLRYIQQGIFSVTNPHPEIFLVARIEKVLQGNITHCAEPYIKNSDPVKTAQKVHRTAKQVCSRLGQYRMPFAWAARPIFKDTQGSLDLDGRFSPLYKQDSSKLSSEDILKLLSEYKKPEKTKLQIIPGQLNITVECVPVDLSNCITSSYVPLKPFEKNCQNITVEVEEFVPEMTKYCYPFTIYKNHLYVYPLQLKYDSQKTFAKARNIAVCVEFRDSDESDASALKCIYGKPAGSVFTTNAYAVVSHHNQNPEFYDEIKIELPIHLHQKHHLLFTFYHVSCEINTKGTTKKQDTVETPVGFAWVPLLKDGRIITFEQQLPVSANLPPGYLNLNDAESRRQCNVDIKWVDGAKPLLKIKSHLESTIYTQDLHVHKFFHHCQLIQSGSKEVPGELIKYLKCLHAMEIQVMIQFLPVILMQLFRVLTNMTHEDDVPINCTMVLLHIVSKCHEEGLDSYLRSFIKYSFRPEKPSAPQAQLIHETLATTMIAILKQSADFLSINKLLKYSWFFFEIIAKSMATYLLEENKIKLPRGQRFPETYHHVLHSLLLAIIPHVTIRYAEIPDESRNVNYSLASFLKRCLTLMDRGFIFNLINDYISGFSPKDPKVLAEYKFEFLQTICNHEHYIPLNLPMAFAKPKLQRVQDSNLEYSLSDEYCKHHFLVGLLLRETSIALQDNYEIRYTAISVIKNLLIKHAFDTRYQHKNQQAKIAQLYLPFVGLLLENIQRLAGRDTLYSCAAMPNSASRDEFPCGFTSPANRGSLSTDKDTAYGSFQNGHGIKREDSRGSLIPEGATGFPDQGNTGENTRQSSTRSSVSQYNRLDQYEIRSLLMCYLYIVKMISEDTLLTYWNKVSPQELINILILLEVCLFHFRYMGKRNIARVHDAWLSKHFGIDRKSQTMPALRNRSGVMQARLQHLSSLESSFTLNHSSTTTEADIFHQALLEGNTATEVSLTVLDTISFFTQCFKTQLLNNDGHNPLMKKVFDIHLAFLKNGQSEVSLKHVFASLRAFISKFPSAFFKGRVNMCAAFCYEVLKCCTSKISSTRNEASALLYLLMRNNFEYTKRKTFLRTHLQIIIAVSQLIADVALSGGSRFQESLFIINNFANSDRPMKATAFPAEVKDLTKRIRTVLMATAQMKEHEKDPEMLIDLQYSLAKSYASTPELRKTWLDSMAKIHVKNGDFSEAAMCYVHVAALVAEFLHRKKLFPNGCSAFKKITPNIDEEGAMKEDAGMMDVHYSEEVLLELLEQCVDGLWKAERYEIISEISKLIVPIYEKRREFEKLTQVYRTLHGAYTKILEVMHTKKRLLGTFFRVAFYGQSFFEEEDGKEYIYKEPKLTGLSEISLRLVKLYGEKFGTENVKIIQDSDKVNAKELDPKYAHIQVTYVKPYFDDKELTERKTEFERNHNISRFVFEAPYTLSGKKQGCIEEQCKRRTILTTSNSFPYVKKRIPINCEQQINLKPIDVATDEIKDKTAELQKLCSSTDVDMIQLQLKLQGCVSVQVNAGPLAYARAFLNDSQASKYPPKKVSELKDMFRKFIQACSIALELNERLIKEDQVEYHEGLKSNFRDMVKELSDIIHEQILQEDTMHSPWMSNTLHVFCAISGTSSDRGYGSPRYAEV
UniProt Q07912: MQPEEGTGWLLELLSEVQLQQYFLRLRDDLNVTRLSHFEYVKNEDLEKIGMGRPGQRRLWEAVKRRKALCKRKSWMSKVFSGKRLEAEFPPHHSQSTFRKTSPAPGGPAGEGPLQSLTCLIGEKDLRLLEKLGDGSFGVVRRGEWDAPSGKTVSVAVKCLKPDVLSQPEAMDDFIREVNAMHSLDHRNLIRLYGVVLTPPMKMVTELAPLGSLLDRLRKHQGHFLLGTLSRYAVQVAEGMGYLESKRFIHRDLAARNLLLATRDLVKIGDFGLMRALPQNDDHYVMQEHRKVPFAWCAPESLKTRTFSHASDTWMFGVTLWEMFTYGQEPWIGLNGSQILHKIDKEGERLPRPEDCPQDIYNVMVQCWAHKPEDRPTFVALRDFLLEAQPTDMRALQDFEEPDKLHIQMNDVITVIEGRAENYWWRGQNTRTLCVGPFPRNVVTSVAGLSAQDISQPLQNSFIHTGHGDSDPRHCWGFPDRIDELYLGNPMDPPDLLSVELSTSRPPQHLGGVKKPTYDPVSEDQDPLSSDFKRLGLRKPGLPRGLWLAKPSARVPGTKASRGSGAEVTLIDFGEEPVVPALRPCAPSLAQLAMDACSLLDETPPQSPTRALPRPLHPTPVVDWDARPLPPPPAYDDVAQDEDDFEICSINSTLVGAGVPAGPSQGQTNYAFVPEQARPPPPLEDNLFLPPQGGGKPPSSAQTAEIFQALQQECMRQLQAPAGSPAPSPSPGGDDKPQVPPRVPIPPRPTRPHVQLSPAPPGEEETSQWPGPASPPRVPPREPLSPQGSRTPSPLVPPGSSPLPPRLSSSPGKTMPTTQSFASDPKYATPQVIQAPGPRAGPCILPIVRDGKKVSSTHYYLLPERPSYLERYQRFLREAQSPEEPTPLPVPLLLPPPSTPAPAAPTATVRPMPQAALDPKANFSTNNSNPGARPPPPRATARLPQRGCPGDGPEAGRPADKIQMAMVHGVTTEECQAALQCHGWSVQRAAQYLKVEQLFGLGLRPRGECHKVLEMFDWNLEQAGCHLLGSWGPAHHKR

Assays:
[1] = target: DOCK11-BioFLAGHis (full-length dedicator of cytokinesis 11) (UniProt Q5JSL3); assay: co-IP; DOCK11-BioFLAGHis and T7-Ack1-His coexpressed in HEK293T cells for 48 h, cells treated or not with 10M-D42AN for 24 h; lysate on streptavidin-conjugated magnetic beads 3 h at 4 °C; washed with TBST; blot with anti-FLAG or anti-Ack1 antibody
[2] = target: DOCK11-BioFLAGHis (full-length dedicator of cytokinesis 11) (UniProt Q5JSL3); assay: pull-down; purified DOCK11-BioFLAGHis immobilised on streptavidin-conjugated magnetic beads in TBST; lysate containing T7-Ack1-His mixed 3 h at 4 °C, with or without DCS8-42A; blot with anti-FLAG or anti-Ack1 antibody; only the target purified

## T7-Ack1-His (activated cdc42-associated kinase 1) (from UniProt Q07912 1-1038)
[1]
  binding: binds
[2]
  binding: binds
